Reference: PubChem BioAssay AID504764 (Drosophila RNAi Screening Center, 2011)

- Test: 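Genes whose knock-down alters Notch-dependent transcription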 (primary screen)
- System: Drosophila Kc167 cells
- Reagents: long dsRNA against Drosophila genes
- Duration: about 5 days (4 days dsRNA, then 24 h after transfection)
- Challenge: transfection of constitutively active membrane-tethered Notch lacking the extracellular domain, read 24 h later
- Detection: 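Firefly luciferase from an E(spl)m3 reporter with active Notch, plus control-promoter and uninduced reporter wells for normalisation; unnormalised counts, duplicate wells a and b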
- Reading the numbers: induced reporter light, run 1, well a and induced reporter light, run 1, well b: higher = more light from the Notch target reporter with active Notch; control promoter light, run 1, well a and control promoter light, run 1, well b: higher = more light from the viral control promoter (cell number, transfection, viability); uninduced reporter light, run 1, well a: higher = more light from the Notch target reporter without active Notch
- Hit rule: 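Wells with low control signal or poorly matching duplicates excluded; duplicates averaged; per source plate, z beyond ±2 for induced/control log2 ratio or beyond ±1.8 for induced/uninduced marks a hit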
- Meaning of the calls: active = modifier hit (raised or lowered Notch signal); inactive = not a hit
The deposit covers about 22,000 reagents; this is a random part of those that have a named target and a result. In the full data, 403 (1.9%) are marked active. 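Unnormalised raw counts per well; ratio z-scores behind the hit calls and whether each hit raises or lowers signal are not deposited.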 Entries without a mark were called inactive. Reagent sequences are not shown. The record does not give: the amount of reagent.

Target gene | dsRNA | induced reporter light, run 1, well a | induced reporter light, run 1, well b | control promoter light, run 1, well a | control promoter light, run 1, well b | uninduced reporter light, run 1, well a
CG5708 | DRSC02881 | 1.06e5 | 1.28e5 | 56300 | 70750 | 15430
CG10969 | DRSC09811 | 1.96e5 | 1.76e5 | 2.19e5 | 1.92e5 | 11445
Cyp6t1 | DRSC20564 | 82595 | 1.14e5 | 1.01e5 | 1.24e5 | 9370
CG31174 | DRSC13518 | 56280 | 47670 | 77985 | 48050 | 7575
mr | DRSC04332 | 2.29e5 | 1.90e5 | 1.77e5 | 1.92e5 | 15780
CG31115 | DRSC13692 | 1.84e5 | 1.99e5 | 1.61e5 | 1.71e5 | 17285

Only “control promoter light, run 1, well b” (3 entries from above):
CG31174 [DRSC13518]: 48050
mr [DRSC04332]: 1.92e5
CG31115 [DRSC13692]: 1.71e5

The listing continues:
Target gene | dsRNA | induced reporter light, run 1, well a | induced reporter light, run 1, well b | control promoter light, run 1, well a | control promoter light, run 1, well b | uninduced reporter light, run 1, well a
CG6073 | DRSC15962 | 2.39e5 | 2.33e5 | 2.71e5 | 2.64e5 | 15145
clos | DRSC06240 | 1.81e5 | 1.71e5 | 1.74e5 | 1.77e5 | 13885
clos | DRSC06241 | 1.59e5 | 1.50e5 | 2.12e5 | 1.82e5 | 14070
clos | DRSC06778 | 1.32e5 | 1.81e5 | 2.10e5 | 2.27e5 | 13188
RpL26 | DRSC10726 | 21730 | 28150 | 24040 | 20070 | 1278
Rgk1 (retired record) | DRSC07343 | 1.15e5 | 82695 | 1.09e5 | 1.14e5 | 8530
Rgk1 (retired record) | DRSC07344 | 4650 | 4985 | 5255 | 5365 | 2845
dao | DRSC01960 | 1.08e5 | 1.42e5 | 1.27e5 | 1.21e5 | 8470
Ilp5 | DRSC08998 | 1.97e5 | 1.58e5 | 1.99e5 | 1.95e5 | 11865
CG4080 | DRSC10398 | 1.41e5 | 1.31e5 | 89620 | 41760 | 10828
AIMP3 | DRSC04500 | 52130 | 46955 | 43465 | 44450 | 3530
rtv | DRSC19541 | 2.10e5 | 1.59e5 | 2.12e5 | 2.08e5 | 12905
CanA-14F | DRSC20211 | 14800 | 11330 | 10840 | 12340 | 4465
CG12691 | DRSC17880 | 1.61e5 | 1.64e5 | 2.69e5 | 2.61e5 | 11355
